Data as given in PubChem BioAssay AID540276 (National Center for Advancing Translational Sciences (NCATS), 2011).
“And” between values parts separate entries of the source, which are not always exact repeats. Equal values may be shown once. The campaign covered roughly 300,000 compounds. About 5,400 (1.8%) were called active. The inconclusive results got no clear call from the source; some entries with a clear call stand among them for comparison. Calls follow the shape of the full dose curve; tested in HEK293 cells. Where the call is inconclusive, the potency comes from a doubtful curve fit.

Experiment: qHTS for inhibitors of binding or entry into cells for Marburg Virus
Settings: Marburg virus pseudotyped entry inhibition, cell reporter; series mostly up to 37.8 µM
Potency is read from the fitted curve at half-maximal effect.

Structure (SMILES) | Potency
Fc1cccc(F)c1CSc1nc2ccccc2[nH]1 | inconclusive: 0.651 µM [activator, full curve, poor fit]
Cc1cc(Cl)ccc1OCC(=O)N/N=C/c1ccncc1 | inactive
CCOC(=O)c1cnc2c(Cl)c(Cl)ccc2c1Nc1ccc(N(C)C)cc1 | inactive
COc1ccc(C2CC(=O)N(Cc3cccc(C)c3)c3c2c(C)nn3-c2nc(C)cc(C)n2)c(OC)c1 (centres undefined) | inconclusive: 3.98 µM [inhibitor, partial curve]
Nc1nonc1C(=O)N/N=C/c1cccc([N+](=O)[O-])c1 | inactive
C#CCN(C(=O)CC1C(=O)NCCN1C/C=C/c1ccccc1)C1CCCCC1 (centres undefined) | inconclusive: 0.794 µM [inhibitor, full curve, poor fit]
Cc1cccc(N2CC(C(=O)Nc3ccc(N4CCOCC4)cc3)CC2=O)c1C (centres undefined) | inactive
CCOC(=O)c1c(-c2ccc(C)o2)csc1NC(=S)NC(=O)c1ccccc1Br | inactive
COc1ccccc1CN(C)C(=O)c1cc(-c2cc(OC)c(OC)c(OC)c2)nc2ccccc12 | inconclusive: 35.5 µM [inhibitor, single point]
CC(C)NC(=S)N=Nc1c(O)[nH]c2ccc([N+](=O)[O-])cc12 | inactive
Cc1ccc(S(=O)(=O)c2nc(-c3ccccc3)oc2NCCN2CCOCC2)cc1 | inconclusive: 35.5 µM [activator, single point]
COc1ccc(-c2csc(NC(=O)CN3C(=O)NC4(CCCC4)C3=O)n2)cc1OC | inactive
CCCCN(C)CCNC(=O)c1cc2c(-c3ccccc3F)nn(C)c2s1 | inconclusive: 20 µM [inhibitor, single point]
COc1ccc(C(CC(=O)NC(C)c2ccc(-c3ccccc3)cc2)NC(C)=O)cc1 (centres undefined) | inconclusive: 12.6 µM [inhibitor, partial curve, poor fit]
Fc1ccccc1CNc1nc(-c2cccnc2)nc2ccccc12 | inconclusive: 25.1 µM [inhibitor, partial curve, poor fit]
CCn1c(CCC(=O)Nc2nc3c(s2)CCCC3)nc2cc(S(=O)(=O)N(C)C)ccc21 | inconclusive: 29.1 µM [inhibitor, single point]
CC(=O)Nc1ccc(S(=O)(=O)N2c3ccccc3C(C)=CC2(C)C)cc1 | inconclusive: 1.12 µM [inhibitor, full curve, poor fit]
O=[N+]([O-])c1cccc(S(=O)(=O)Nc2ccc(S(=O)(=O)N3CCCC3)cc2)c1 | inconclusive: 15.8 µM [inhibitor, partial curve, poor fit]
COc1ccc(Cl)cc1NS(=O)(=O)c1c(C)nc2scc(C)n2c1=O | inactive
CN1CCC(N(C)S(=O)(=O)c2ccc(NC(=O)COc3ccc(Br)cc3Cl)cc2)CC1 | active: 8.91 µM
CCOC(=O)/C(C)=N/NC(=O)c1ccc([N+](=O)[O-])cc1 | inconclusive: 3.16 µM [activator, single point]
CCCNc1nc(-c2ccccc2)c(C(=O)OCC)cc1C#N | inconclusive: 2.82 µM [inhibitor, full curve, poor fit]
Cc1cc(-c2ccc(N=Nc3ccc4c(S(=O)(=O)O)cc(S(=O)(=O)O)c(N)c4c3O)c(C)c2)ccc1N=Nc1ccc2c(S(=O)(=O)O)cc(S(=O)(=O)O)c(N)c2c1O | inconclusive: 0.0315 µM [activator, full curve, poor fit]

A different layout for some results above:
O=[N+]([O-])c1cccc(S(=O)(=O)Nc2ccc(S(=O)(=O)N3CCCC3)cc2)c1
  Potency: inconclusive: 15.8 µM [inhibitor, partial curve, poor fit]
COc1ccc(Cl)cc1NS(=O)(=O)c1c(C)nc2scc(C)n2c1=O
  Potency: inactive

The list goes on:

Structure (SMILES) | Potency
CC(=O)Oc1ccc(/C=N/NC(=O)C2CCCN2S(=O)(=O)c2ccc(Cl)cc2)cc1 (centres undefined) | inactive
COc1cc(NC(=O)C(NC(=O)C2CCC(C)CC2)C(C)C)cc(OC)c1OC (centres undefined) | inconclusive: 11.2 µM [activator, single point]
COc1ccc(C(=O)N(C)c2ccccc2C(=O)NCCc2ccccc2)cc1 | inconclusive: 1.78 µM [inhibitor, full curve, poor fit]
COc1cc(CNc2ccccc2Oc2cc(=O)n(C)c(=O)n2C)cc(OC)c1OC | inconclusive: 22.4 µM [inhibitor, single point]
COc1ccc(NC(=O)CSc2nc3n[nH]c(C)c3c(=N)n2-c2ccc(Cl)c(C)c2)cc1OC | inconclusive: 7.94 µM [inhibitor, partial curve, poor fit]
O=C(CNC(=O)c1ccccc1)OC1CCCCC1 | inconclusive: 35.5 µM [inhibitor, single point]
N#Cc1c(-c2ccccc2)no[n+]1[O-] | active: 11.2 µM
COc1ccc(-c2csc(NC(=O)CC(C)C)n2)cc1 | inconclusive: 15.8 µM [inhibitor, single point]
Cc1ccc(N(Cc2cc(=O)[nH]c3ccccc23)C(=O)C(C)C)c(C)c1 | inconclusive: 12.6 µM [inhibitor, single point]
CCn1c(=O)c2[nH]c(-c3ccccc3)nc2n(CC)c1=O | inconclusive: 3.98 µM [inhibitor, full curve, poor fit]
CCc1ccc(-n2nc(C)c3c2NC(=O)CSC3c2ccccc2C)cc1 (centres undefined) | inactive
CCCC(NC(=O)CCl)c1ccccc1 (centres undefined) | inconclusive: 11.2 µM [inhibitor, partial curve, poor fit]
Cn1c(=O)c2c(nc(NCCc3ccccc3)n2Cc2cccc(Br)c2)n(C)c1=O | inconclusive: 5.62 µM [inhibitor, partial curve, poor fit]
Cc1ccc(-n2nnnc2SC(C(=O)c2c[nH]c3ccccc23)c2ccccc2)cc1 (centres undefined) | inactive
COc1ccc(C2NCCc3cc(OC)c(OC)cc32)cc1OC (centres undefined) | inconclusive: 23.1 µM [inhibitor, single point]
CCCCN(CC)CCCNC(=O)c1cn(CC(C)C)c(=O)c2c1c1ccccc1n2C | inconclusive: 11.2 µM [inhibitor, partial curve, poor fit]
Nn1c(SCc2cccc(Oc3ccccc3)c2)nnc1C(F)(F)F | inconclusive: 35.5 µM [inhibitor, single point]
COc1ccc2c(c1)CCc1c(C(=O)Nc3c(C)nn(Cc4ccccc4Cl)c3C)noc1-2 | inconclusive: 35.5 µM [inhibitor, single point]
CCn1c(=O)cc(N2CCCCC2)[nH]c1=O | inactive
CCOC(=O)c1cc(C)sc1NC(=O)CSc1nccn1C | inactive
Fc1ccccc1C1c2[nH]c3ccccc3c2CCN1Cc1cccn1-c1ncccn1 (centres undefined) | active: 3.16 µM
Cc1cccc(N2CN=c3s/c(=C/c4ccncc4)c(=O)n3C2)c1 | inactive
COC(=O)c1c(C)oc2c1cc(NS(=O)(=O)c1c(C)cc(C)cc1C)c1ccccc12 | inconclusive: 14.1 µM [inhibitor, single point]

Individual results from above:
`COC(=O)c1c(C)oc2c1cc(NS(=O)(=O)c1c(C)cc(C)cc1C)c1ccccc12` – Potency: inconclusive: 14.1 µM [inhibitor, single point]
`COc1ccc2c(c1)CCc1c(C(=O)Nc3c(C)nn(Cc4ccccc4Cl)c3C)noc1-2` – Potency: inconclusive: 35.5 µM [inhibitor, single point]
`Cc1cccc(N2CN=c3s/c(=C/c4ccncc4)c(=O)n3C2)c1` – Potency: inactive
`Cc1ccc(N(Cc2cc(=O)[nH]c3ccccc23)C(=O)C(C)C)c(C)c1` – Potency: inconclusive: 12.6 µM [inhibitor, single point]

Later entries:

Structure (SMILES) | Potency
Cc1ccc2c(c1)CC1(CN2C)C(=O)OC2(CCCCC2)OC1=O | inactive
CC1CCCCC12NC(=O)N(CC(=O)NCc1ccccc1)C2=O (centres undefined) | inconclusive: 12.6 µM [inhibitor, partial curve]
CCc1cc2c(SCC(=O)c3ccccc3)ncnc2s1 | inactive
O=C(NCc1csc2ccc(Cl)cc12)Nc1cccc2ccccc12 | inconclusive: 1.26 µM [inhibitor, single point]
O=C(Nc1cccc(-c2nnc(-c3ccccc3)o2)c1)C1CCCO1 (centres undefined) | inconclusive: 32.6 µM [inhibitor, single point]
COC(=O)c1cc2sc(C)cc2n1Cc1ccc(F)cc1Cl | inactive
CCOC(=O)N1CCN(C(=O)CNC(=O)c2nn(-c3ccc(OC)cc3OC)c(=O)c3ccccc23)CC1 | inactive
O=C(NCCNC(=O)c1ccccc1[N+](=O)[O-])c1ccccc1[N+](=O)[O-] | inactive
COc1cccc(CSc2nc3cc(OC)c(OC)cc3c3nc(CCn4nc(C)cc4C)nn23)c1 | inactive
COc1cc2ccccc2cc1C(=O)OCC(=O)N(C)c1c(N)n(Cc2ccccc2)c(=O)[nH]c1=O | inconclusive: 2.51 µM [inhibitor, partial curve, poor fit]
COc1cccc(NC(=O)COC(=O)c2c(F)cccc2Cl)c1 | inconclusive: 12.6 µM [activator, partial curve, poor fit]
NC1=NC(=Nc2cccc(Cl)c2)c2ccccc21 | inconclusive: 29.1 µM [inhibitor, single point]
C[C@]1(C(=O)CSc2nc3ccccc3[nH]2)CCC(=O)O1 | inactive
CCOc1ccc(-c2cn[nH]c2N)cc1 | inactive
O=C1CC(c2ccccc2)=NN1c1ccc([N+](=O)[O-])cc1 | inconclusive: 0.282 µM [inhibitor, full curve, poor fit]
CC(=O)N/C(=C\c1ccccc1)C(=O)OCC(=O)N(C)C1CCS(=O)(=O)C1 (centres undefined) | inactive
Cc1cc(NC(=O)CCC(=O)N(CC(=O)NC2CCCC2)c2ccc(C(C)C)cc2)no1 | inconclusive: 25.1 µM [inhibitor, single point]
CC(C)(C)S(=O)(=O)/C(C#N)=N/Nc1ccc(C#N)cc1 | inconclusive: 35.5 µM [inhibitor, single point]
Cc1occc1C(=O)N/N=C/c1ccc(Cl)c([N+](=O)[O-])c1 | active: 3.98 µM
COc1ccc(CNc2nc(NCc3ccc(OC)cc3)n(C(C)=O)n2)cc1 | inconclusive: 2.06 µM [inhibitor, partial curve, poor fit]
CCN(CC)c1ccc(-c2nc3cnccn3c2NC2CCCC2)cc1 | inconclusive: 1.3 µM [activator, partial curve, poor fit]
O=C(Cc1cccs1)NNC(=S)NC(=O)c1ccco1 | inconclusive: 6.31 µM [inhibitor, partial curve, poor fit]
